Reference: PubChem BioAssay AID248 (DTP/NCI, 2004)
The list shows only some results of the screen, not a fair sample: it is rich in T/C values a quarter to a half above the control, in often repeated tests (any T/C) and in doses without a T/C. Other doses and runs of a compound stand elsewhere. T/C gives the treated animals as a percentage of the vehicle group. Some doses have a count of surviving animals in place of a T/C: the source holds a T/C of zero for them, seemingly a mark for toxic or unscored doses. Some doses without a T/C left all or most animals alive at the check, yet need not have been tolerated: the source hardly ever lists a survival T/C far under the control, and the zero likely stands for such cases as well. Survivors were counted at the toxicity check, usually on the fifth day, unless a day is given; later deaths do not show. Schedule codes are those of the source, read here as Q, the interval in days (D) or hours (H), X, the number of doses. Some entries hold several experiments; the values are given in rising order. Some schedule codes hold Z or #, which are not explained here. For survival time, this PubChem deposit counts one and a half times the control or more as active, and values a quarter to a half above the control carry no call in these data; other NCI protocols may use other cut-offs. Marks such as (2×) say how often a value occurs here. Some T/C values carry the count of animals alive at the toxicity check (mostly the fifth day); where none is given, no animal had died by that day.

Tested on: L1210 leukemia ip in BDF1 mice, survival T/C
Test: NCI In Vivo Anticancer Drug Screen. Data for tumor model L1210 Leukemia (intraperitoneal) in B6D2F1 (BDF1) mice
Details: T/C endpoint: mean survival time, higher T/C = longer survival
[1] = dose: 100.0 mg/kg/injection, schedule: Q04DX003 (ip), vehicle: Klucel (hydroxypropylcellulose) (HPC)
[2] = dose: 200.0 mg/kg/injection, schedule: Q04DX003 (ip), vehicle: Klucel (hydroxypropylcellulose) (HPC)
[3] = dose: 400.0 mg/kg/injection, schedule: Q04DX003 (ip), vehicle: Klucel (hydroxypropylcellulose) (HPC)
[4] = dose: 200.0 mg/kg/injection, schedule: Q01DX009 (ip), vehicle: saline with Tween-80
[5] = dose: 400.0 mg/kg/injection, schedule: Q01DX001 (ip), vehicle: Klucel (hydroxypropylcellulose) (HPC)
[6] = dose: 400.0 mg/kg/injection, schedule: Q01DX001 (ip), vehicle: saline with Tween-80
[7] = dose: 50.0 mg/kg/injection, schedule: Q04DX002 (ip), vehicle: other
[8] = dose: 100.0 mg/kg/injection, schedule: Q04DX002 (ip), vehicle: other
[9] = dose: 200.0 mg/kg/injection, schedule: Q04DX002 (ip), vehicle: other
[10] = dose: 400.0 mg/kg/injection, schedule: Q04DX002 (ip), vehicle: other
[11] = dose: 300.0 mg/kg/injection, schedule: Q01DX001 (ip), vehicle: saline
[12] = dose: 100.0 mg/kg/injection, schedule: Q01DX009 (ip), vehicle: Klucel (hydroxypropylcellulose) (HPC)
[13] = dose: 200.0 mg/kg/injection, schedule: Q01DX009 (ip), vehicle: Klucel (hydroxypropylcellulose) (HPC)
[14] = dose: 400.0 mg/kg/injection, schedule: Q01DX009 (ip), vehicle: Klucel (hydroxypropylcellulose) (HPC)
[15] = dose: 200.0 mg/kg/injection, schedule: Q01DX001 (ip), vehicle: saline
[16] = dose: 400.0 mg/kg/injection, schedule: Q01DX001 (ip), vehicle: saline
[17] = dose: 400.0 mg/kg/injection, schedule: Q01DX001 (ip), vehicle: carboxymethylcellulose (CMC)

C=C(CC(N)=O)C(=O)O (tested in a mixture with another compound)
T/C (dose: 175.0 mg/kg/injection, schedule: Q01DX009 (ip), vehicle: saline): 125 % of control
T/C (dose: 177.0 mg/kg/injection, schedule: Q01DX001 (ip), vehicle: saline): 130 % of control
T/C (dose: 177.0 mg/kg/injection, schedule: Q01DX009 (ip), vehicle: saline): 137 % of control
T/C (dose: 400.0 mg/kg/injection, schedule: Q01DX001 (ip), vehicle: saline, evaluated on day 30): 127 % of control
T/C (dose: 400.0 mg/kg/injection, schedule: Q01DX001 (ip), vehicle: saline, run until all animals had died): 127 % of control
T/C (dose: 600.0 mg/kg/injection, schedule: Q01DX001 (ip), vehicle: saline, evaluated on day 30): 134 % of control
T/C (dose: 600.0 mg/kg/injection, schedule: Q01DX001 (ip), vehicle: saline, run until all animals had died): 148 % of control
survivor count (dose: 600.0 mg/kg/injection, schedule: Q01DX009 (ip), vehicle: saline): 1 of 6

S=C=NCCCCCCN=C=S
survivor count (dose: 100.0 mg/kg/injection, schedule: Q04DX002 (ip), vehicle: saline): 0 of 3
survivor count (dose: 200.0 mg/kg/injection, schedule: Q04DX002 (ip), vehicle: saline): 2 of 3
survivor count (dose: 400.0 mg/kg/injection, schedule: Q04DX002 (ip), vehicle: saline): 0 of 3

ClCCCN(CCCCl)c1ccc(C=Nc2cccc(Cl)c2)c(Cl)c1
survivor count [1]: 6 of 6
survivor count [2]: 6 of 6
survivor count [3]: 6 of 6

CCCCCCCCCCCCCCCCS(=O)(=O)c1ccc(S(=O)(=O)N/N=c2/sc3ccc(S(=O)(=O)O)cc3n2C)cc1C(=O)O
survivor count [4]: 0 of 3

CCCC(O)CNCc1ccc2c3c(cccc13)CC2 (centres undefined)
survivor count (dose: 100.0 mg/kg/injection, schedule: Q01DX001 (ip), vehicle: Klucel (hydroxypropylcellulose) (HPC)): 1 of 3
survivor count (dose: 200.0 mg/kg/injection, schedule: Q01DX001 (ip), vehicle: Klucel (hydroxypropylcellulose) (HPC)): 0 of 3
survivor count [5]: 0 of 3

CCCCCCCCCCCCCOc1ccc(Sc2ccc([N+](=O)[O-])cc2)cc1
survivor count [1]: 6 of 6
survivor count [2]: 6 of 6

COc1ccc(Cl)cc1NC(=O)/C=C/c1ccccc1
survivor count (dose: 100.0 mg/kg/injection, schedule: Q01DX009 (ip), vehicle: saline with Tween-80): 3 of 3
survivor count [6]: 6 of 6
survivor count (dose: 400.0 mg/kg/injection, schedule: Q01DX009 (ip), vehicle: saline with Tween-80): 6 of 6

Cc1[nH]nc(-c2cccnc2)c1N=NN1CCC(C(N)=O)CC1
survivor count (dose: 150.0 mg/kg/injection, schedule: Q01DX001 (ip), vehicle: other): 3 of 6
survivor count (dose: 300.0 mg/kg/injection, schedule: Q01DX001 (ip), vehicle: other): 2 of 6

COC(=O)C1CCC(NC(=O)NCCCl)CC1 (centres undefined)
survivor count [5]: 3 of 5

N#Cc1nc2c(nc1C#N)-c1ccccc1/C2=C1/C(=O)Cc2ccccc21
T/C [7]: 90, 98, 101 % of control
survivor count [7]: 3 of 3
T/C [8]: 86, 87, 89, 93, 99, 101 % of control
survivor count [8]: 3 of 3 and 6 of 6
T/C [9]: 89, 93, 101 (2×), 107 % of control
survivor count [9]: 3 of 3
T/C [10]: 86 and 92 % of control
survivor count [10]: 0 of 3 and 4 of 6

CC1(C)N=C(N)N=C(N)N1c1ccc(CCCCc2ccc(S(=O)(=O)F)cc2)c(Cl)c1
survivor count (dose: 75.0 mg/kg/injection, schedule: Q01DX001 (ip), vehicle: saline): 1 of 6
survivor count (dose: 150.0 mg/kg/injection, schedule: Q01DX001 (ip), vehicle: saline): 0 of 6
survivor count [11]: 0 of 6

COc1cc2c(c(OC)c1OC)-c1ccc(SCc3ccccc3)c(=O)cc1[C@@H](NC(C)=O)CC2
T/C (dose: 12.5 mg/kg/injection, schedule: Q01DX009 (ip), vehicle: Klucel (hydroxypropylcellulose) (HPC)): 131 % of control
survivor count (dose: 50.0 mg/kg/injection, schedule: Q01DX009 (ip), vehicle: Klucel (hydroxypropylcellulose) (HPC)): 6 of 6
survivor count [12]: 6 of 6
survivor count [13]: 2 of 6
survivor count [14]: 0 of 6

COc1cccc(N=CN(C)C)c1
survivor count [15]: 2 of 4
survivor count [16]: 0 of 4

CCCCC(CC)CC1C(=O)NC(=S)NC1=O (centres undefined)
survivor count [11]: 2 of 6

Oc1ccc(O)c2c1CNCC2O (centres undefined)
survivor count [16]: 0 of 6

CNC1(c2ccc(F)cc2)CCCCC1
survivor count [15]: 1 of 4
survivor count [16]: 0 of 4

CCOC(=O)C(NC(C)=O)(C(=O)OCC)C(=O)c1ccc(Cl)cc1
survivor count [17]: 4 of 4

NC(CCC(=O)O)C(=O)NC(CO)C(=O)O (centres undefined)
survivor count [6]: 3 of 3

Cc1ccc2[nH]c(O)c(N=Nc3ccccc3[N+](=O)[O-])c2c1
survivor count [16]: 6 of 6

c1ccc(-c2nc(Oc3ccc(Oc4nc(-c5ccccc5)nc(-c5ccccc5)n4)cc3)nc(-c3ccccc3)n2)cc1
survivor count (dose: 100.0 mg/kg/injection, schedule: Q04DX003 (ip), vehicle: saline with Tween-80): 6 of 6
survivor count (dose: 400.0 mg/kg/injection, schedule: Q04DX003 (ip), vehicle: saline with Tween-80): 6 of 6

NC1CC(C(=O)O)CCC1S (centres undefined)
survivor count (dose: 25.0 mg/kg/injection, schedule: Q04DX002 (ip), vehicle: saline): 3 of 3
survivor count [9]: 0 of 3

C/C=C/C(=O)Nc1cccc(OC(=O)NC(C)(C)C)c1
survivor count [4]: 6 of 6

[N-]=[N+]=C1C=CC=C1C(=O)O
survivor count [12]: 2 of 6
survivor count [13]: 0 of 6
survivor count [14]: 0 of 6

c1cc2c(c3c1CC1c4cc5c(cc4CCN1C3)OCO5)OCO2 (centres undefined)
survivor count [15]: 4 of 4
survivor count [16]: 4 of 4

Cc1c(C)c(CN)c(C)c(C)c1CN
survivor count [14]: 0 of 6
survivor count [3]: 2 of 6

CC1CN=C(c2ccc(NC(=O)NCCCCCCCCCCCCNC(=O)Nc3ccc(C4=NCC(C)N4)cc3)cc2)N1 (centres undefined)
survivor count (dose: 250.0 mg/kg/injection, schedule: Q01DX Z (ip), vehicle: carboxymethylcellulose (CMC)): 5 of 6
survivor count (dose: 500.0 mg/kg/injection, schedule: Q01DX Z (ip), vehicle: carboxymethylcellulose (CMC)): 0 of 6

COc1cc2nc3cc([N+](=O)[O-])ccc3c(Cl)c2cc1OC
survivor count [14]: 6 of 6

Brc1cscc1-c1cccc2ccccc12
survivor count (dose: 50.0 mg/kg/injection, schedule: Q01DX009 (ip), vehicle: saline with Tween-80): 3 of 3

C[S+]1CCCCC1
survivor count [15]: 1 of 4
survivor count [16]: 0 of 4

NC(=S)Nc1ccccc1Cl
survivor count [16]: 0 of 4

CN(CCO)N=Nc1ccccc1C(N)=O
T/C (dose: 78.0 mg/kg/injection, schedule: Q01DX009 (ip), vehicle: saline with Tween-80): 127 % of control
T/C (dose: 118.0 mg/kg/injection, schedule: Q01DX009 (ip), vehicle: saline with Tween-80): 131 % of control
T/C (dose: 177.0 mg/kg/injection, schedule: Q01DX009 (ip), vehicle: saline with Tween-80): 129 % of control [5 of 6 alive]
T/C [4]: 136 % of control
T/C (dose: 266.0 mg/kg/injection, schedule: Q01DX009 (ip), vehicle: saline with Tween-80): 149 % of control

Clc1ccc2c(c1)C(Br)c1cc(Cl)cc(Cl)c1-2 (centres undefined)
survivor count (dose: 200.0 mg/kg/injection, schedule: Q01DX001 (ip), vehicle: acetone): 6 of 6
survivor count (dose: 400.0 mg/kg/injection, schedule: Q01DX001 (ip), vehicle: acetone): 6 of 6

Cc1ccc(CSC(=N)N)cc1
survivor count (dose: 200.0 mg/kg/injection, schedule: Q01DX001 (ip), vehicle: carboxymethylcellulose (CMC)): 0 of 4
survivor count [17]: 0 of 4
